Data reported in patent publication US5792784A, “Coupling product obtained from histamine and an amino acid” (Babizhayev; Marc, priority 1993, dated 1998).
At least one compound was matched to its structure with a doubt left.

Experiments:
[1] = system: scar; assay: Healing cream on scars; type: in vivo; conditions: nanospheres 5%, twice a day
[2] = system: epidermis; assay: Sun lotion applied after UVB exposure, epidermis quality; type: in vivo; conditions: equivalent tans
[3] = system: skin of the face; assay: Face care / anti-ageing cream; type: in vivo
[4] = system: skin; assay: After-shave lotion, skin state; type: in vivo; conditions: regular after shave application
[5] = Protection of rosa mosqueta oil against oxidation (acid titration, 5 weeks); conditions: 25 mmol per L oil

Structure (SMILES): CC(N)CC(=O)NCCc1c[nH]cn1 (racemic) [β-amino butyryl-histamine]
- complexion [1]: reappearance of an uniform complexion with disappearing of the turgescences
- improvement of the scar [1]: significant improvement of the scar
- reduction of swelling and irregularity of the skin until complete disappearance [1]: two

Structure (SMILES): NC(CC(=O)NCCc1c[nH]cn1)c1ccccc1 (centres unmarked) [3-phenyl-3-aminopropionyl-histamine]
- quality of epidermis [2]: the epidermis presents a better quality in the following days of the radiation

Structure (SMILES): NCCCCC(=O)NCCc1c[nH]cn1 [5-aminovaleryl-histamine]
- visible results on the skin of the face ([3]; daily application): good health, flexibility, freshness of the complexion, uniform colour and good hydration
- wrinkles and skin aspect ([3]; two daily applications): regression of the small wrinkles, a more lissom and more coloured skin

Structure (SMILES): NCCCCCC(=O)NCCc1c[nH]cn1 [6-aminocaproyl-histamine]
- skin state [4]: allows to preserve a skin in a good state

Structure (SMILES): NCCCCCCCC(=O)NCCc1c[nH]cn1 [8-amino-octanoyl-histamine]
- antioxidant action (acid titration) [5]: antioxidant action on rosa mosqueta oil
